In publication PMC8400394, “Adsorption of Recombinant Human β-Defensin 2 and Two Mutants on Mesoporous Silica Nanoparticles and Its Effect against Clavibacter michiganensis subsp. michiganensis” (Nanomaterials, 2021):

Test: Release (desorption) of AMPs from MSN5.4
Conditions: PBS

## human β-defensin-2 [hβD2]
28 ± 2 °C, BCA total protein, 120 h
  concentration released from MSN5.4 at first registered desorption (120 h): 2.8 µg/mL
28 ± 2 °C, as far as monitored (216 h), loaded with 0.5 mg AMP
  total amount released from MSN5.4 (cumulative release): approximately 55 µg
Total protein quantified for 216 h
  time after which release from MSN5.4 begins: > 120 h
